# This is one part of the list.
# Target: T1, OsSMF1 (Oryza sativa, UniProt Q6ZLB0 1-436)
# T1 sequence: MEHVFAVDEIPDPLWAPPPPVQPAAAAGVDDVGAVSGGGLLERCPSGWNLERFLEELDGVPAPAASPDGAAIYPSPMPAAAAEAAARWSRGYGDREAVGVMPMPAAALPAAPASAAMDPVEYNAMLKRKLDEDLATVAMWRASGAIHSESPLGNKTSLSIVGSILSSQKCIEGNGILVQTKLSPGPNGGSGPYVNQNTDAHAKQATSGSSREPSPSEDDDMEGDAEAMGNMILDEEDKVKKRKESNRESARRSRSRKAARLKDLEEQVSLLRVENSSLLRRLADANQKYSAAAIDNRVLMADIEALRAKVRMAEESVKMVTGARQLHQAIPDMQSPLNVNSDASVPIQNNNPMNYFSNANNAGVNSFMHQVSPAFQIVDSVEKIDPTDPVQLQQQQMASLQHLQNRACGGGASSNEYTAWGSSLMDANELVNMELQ
# Assay: protein-binding microarray (RPBM); PBS, 2% BSA, 51.3 ng/ul salmon testes DNA, 50 uM zinc acetate, 200 nM TF, 25 C, 1 h; high values mean tight binding
# Settings: protein: recombinant; tags: N-terminal polyhistidine and DsRed monomer fusion (pET32a); chain copies: 2; label: CyDye5-dUTP incorporated in the synthesized complementary strand; 3' TTTTT single-stranded linker to array surface; dsDNA, one strand shown
# How it was run: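 The binding signal for each feature is its fluorescence intensity in arbitrary units. An Axon 4000B scanner was used to read a custom Agilent array that had been made double-stranded with Cy5-dUTP primer extension, blocked with 2% BSA, incubated at 25 °C for 1 h with 200 nM protein in PBS, 2% BSA, salmon testes DNA and 50 µM zinc acetate, and washed. The protein was an N-terminal polyhistidine–DsRed transcription factor fusion from E. coli BL21-CodonPlus, purified on Ni–NTA.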
row,Sequence,binding signal
1,ATGTGCCGATGTATTTGACTTACTGTCCCTGGTAATGAAACGGAGTCACCTAGTGCAG,3140 fluorescence intensity (a.u.)
2,TTGGCTTGTTGTTCATAGTTCCTACCAATTGCGTGTCCTCCGGAGTCACCTAGTGCAG,4480 fluorescence intensity (a.u.)
3,ACGGGCTGCACGTTGCTACTACCAGCAGTAGCGCCTGCTACGGAGTCACCTAGTGCAG,33100 fluorescence intensity (a.u.)
4,TTATTAATATATTTAATTTAATGATCCGAGATAACATATCCGGAGTCACCTAGTGCAG,35600 fluorescence intensity (a.u.)
5,CACGGCCTCGTCCTAGGCCCGCCACGTGTAGGCGACGTGTCGGAGTCACCTAGTGCAG,16200 fluorescence intensity (a.u.)
6,CCCCGCCCGGTGCAAAATCAGCGCAGATTCGCCCGCCTGTCGGAGTCACCTAGTGCAG,3350 fluorescence intensity (a.u.)
7,AATCGATTCGAAATCCACACCGCTACTACGGCTAATTACGCGGAGTCACCTAGTGCAG,3870 fluorescence intensity (a.u.)
8,TCCAGCTAATGCCCAACCTCCAAAGCCGACGCGTTGGTTTCGGAGTCACCTAGTGCAG,3920 fluorescence intensity (a.u.)
9,CAAACAATATTCTTTTGTGACTAGATCAAGCCGTAGTGTTCGGAGTCACCTAGTGCAG,3650 fluorescence intensity (a.u.)
10,TATCTGATGATGTGGGAGGTTCTAAAGGCAGTGCCGCTAGCGGAGTCACCTAGTGCAG,4220 fluorescence intensity (a.u.)
11,GCGGCTCGCCGTCATATGCGACGTGGCATGCACGACGCCGCGGAGTCACCTAGTGCAG,14300 fluorescence intensity (a.u.)
12,GGGCGAATTCGATTGAAGGAGGGAGGAATGTAATATCCCGCGGAGTCACCTAGTGCAG,29700 fluorescence intensity (a.u.)
13,CCGCCTCACCACGCTGACCCATCGCCGGCGGTCTCCCTGCCGGAGTCACCTAGTGCAG,3720 fluorescence intensity (a.u.)
14,GAGAGAGACACGTACTATGCTAGACTAGACAACACCCAAACGGAGTCACCTAGTGCAG,3640 fluorescence intensity (a.u.)
15,GTACAACTTAATTAGACCATAATATCTAAGGTTGCGTAATCGGAGTCACCTAGTGCAG,4440 fluorescence intensity (a.u.)
16,GGGCTAACTAACTGTGTGAATAGTCAACGTAGAGACTTATCGGAGTCACCTAGTGCAG,4010 fluorescence intensity (a.u.)
17,GTTGCAGTGTGTGTTTTGTGTCACAAGCTAGGCTCGTGTACGGAGTCACCTAGTGCAG,3520 fluorescence intensity (a.u.)
18,CCGCCGCCGCCGCCGCCCGAATCCTTCCTGTGACGGCGAGCGGAGTCACCTAGTGCAG,3340 fluorescence intensity (a.u.)
19,CCCCACCATGTCCACGCATTCACGCATGCATGCAGATATACGGAGTCACCTAGTGCAG,3220 fluorescence intensity (a.u.)
20,ATGTTTTGCTGAGTCTAAGCATGACGTACTTATCAAGATGCGGAGTCACCTAGTGCAG,3220 fluorescence intensity (a.u.)
21,AATTTCCAGTGCAACAGCGAGGAGTTAAAACACCAAGGGCCGGAGTCACCTAGTGCAG,3400 fluorescence intensity (a.u.)

# As a short view, some entries already given.
row,Sequence,binding signal
3,ACGGGCTGCACGTTGCTACTACCAGCAGTAGCGCCTGCTACGGAGTCACCTAGTGCAG,33100 fluorescence intensity (a.u.)
4,TTATTAATATATTTAATTTAATGATCCGAGATAACATATCCGGAGTCACCTAGTGCAG,35600 fluorescence intensity (a.u.)
5,CACGGCCTCGTCCTAGGCCCGCCACGTGTAGGCGACGTGTCGGAGTCACCTAGTGCAG,16200 fluorescence intensity (a.u.)

# Next part.

row,Sequence,binding signal
1,TTCCACGATCCCCACCTCACCAAATCGAATCGACCGCGAACGGAGTCACCTAGTGCAG,3940 fluorescence intensity (a.u.)
2,CTCGTAACACCTACACTACACGTATGAGCTGAACCCACCGCGGAGTCACCTAGTGCAG,5340 fluorescence intensity (a.u.)
3,AATATTTTACAATTTTAATAATGATGTCATCTATAGCTCTCGGAGTCACCTAGTGCAG,5700 fluorescence intensity (a.u.)
4,AACCCGCCCGGCCGCCACACACGCCTCTCTAGCTACCCGGCGGAGTCACCTAGTGCAG,4040 fluorescence intensity (a.u.)
5,CCACCACAGTGACCACTCCGCCCGTCTCTCCTCCTGATCGCGGAGTCACCTAGTGCAG,3810 fluorescence intensity (a.u.)
6,TCTCGTCGAGAGCTATAATTTCCATATAAAATTTGTCTCACGGAGTCACCTAGTGCAG,31000 fluorescence intensity (a.u.)
7,TTGACCACACTCTTTCCGTTCCCCTCCCAAAGGCGTATTTCGGAGTCACCTAGTGCAG,3590 fluorescence intensity (a.u.)
8,CCCGCTTCTGCCCTCCTAAGTTCCGTCATCACCGTTATCACGGAGTCACCTAGTGCAG,4210 fluorescence intensity (a.u.)
9,TTTAGAAGAACAAAATGCTGACAAATCCTGGTCATTTCTTCGGAGTCACCTAGTGCAG,5050 fluorescence intensity (a.u.)
10,AGCTTCTCGTCGAGTGGCGGCGGCGGCGGCGGCGGAGGCTCGGAGTCACCTAGTGCAG,33700 fluorescence intensity (a.u.)
11,GGAATTATTCTAAGTTGAATTCATATTAGTTGTACTTCACCGGAGTCACCTAGTGCAG,3160 fluorescence intensity (a.u.)
12,TACTTGGTCTAAGTGCTGTGCCACGCCTTGCCGGTCTCAACGGAGTCACCTAGTGCAG,4980 fluorescence intensity (a.u.)
13,AATGTATCATCATTCATCAGCAAAACAGACGAACAGGTTGCGGAGTCACCTAGTGCAG,4390 fluorescence intensity (a.u.)
14,TGCGCAAGGACGTGGCCTCTGCTGTGGTTGGTCATACAACCGGAGTCACCTAGTGCAG,7460 fluorescence intensity (a.u.)
15,GATCCGCATCACTGATTCACTGCACTTCGCCCGCCGTCTGCGGAGTCACCTAGTGCAG,3960 fluorescence intensity (a.u.)
16,TTGAGTCTTAGACGCCAATGAATATTTGTTAGTCATTCGCCGGAGTCACCTAGTGCAG,3590 fluorescence intensity (a.u.)
17,TGTCGTTGTATACGTTGATTGCGTGTATAAGTAATATATGCGGAGTCACCTAGTGCAG,3970 fluorescence intensity (a.u.)
18,TTCCTTTACTACCATATTGGTGAGGATTATCTCTACCCAACGGAGTCACCTAGTGCAG,3670 fluorescence intensity (a.u.)
19,GCCCAAACAAGTCACTCAGCAGTCAGCAGGTCTCACAGGCCGGAGTCACCTAGTGCAG,4680 fluorescence intensity (a.u.)
20,GGCAGGACGGCAGGAGGCCTGTTCGCTTGAGGTGTCTAGCCGGAGTCACCTAGTGCAG,39800 fluorescence intensity (a.u.)
21,TTTGGCCATGTCATCTAGAGCTTTAGTTTATAATACTTCACGGAGTCACCTAGTGCAG,4360 fluorescence intensity (a.u.)

# Source: PMC7819943, “Rice protein-binding microarrays: a tool to detect cis-acting elements near promoter regions in rice”
